The data set relates to NMDA receptors. The experiment in a line: [3H]CGP-39653 saturation binding, spinal cord membranes. To be noted: normal rat whole spinal cord. The procedure:
Changes in NMDA receptor levels were determined at three weeks following nerve injury (one week following transplantation), as a marked distinction in responses to sensory stimuli between adrenal medullary and control transplanted animals can be made at this time point. […] [^3 H]CGP-39653 (D,L-(E)-2-amino-4-propyl-5-phosphono-3-pentenoate), a selective high-affinity competitive antagonist at NMDA receptors, was used to label the binding sites. In preliminary experiments, binding characteristics of this ligand were determined in the rat spinal cord. Saturation assays were performed on whole spinal cord tissue, and the results compared to those obtained in cortical membranes. NMDA binding sites were analyzed using previously described procedures with slight modification [M. A. Sills et al., Eur. J. Pharmacol., 192:19-24 (1991)]. Animals were decapitated and the spinal cords were rapidly extruded with saline pressure. […] This volume of tissue corresponded to approximately 110 μg of protein as determined using the Bradford method (BioRad, Richmond, Calif.). […] Nonspecific binding was determined in parallel tubes containing 100 mM L-glutamiate. […] Radioactivity was counted with a Beckman 3270 scintillation counter at 48-52% efficiency. Estimates of binding parameters were determined using the program LIGAND [P. J. Munson and D. Rodbard, Anal. Biochem., 197:220-239 (1980)].

SMILES strings stand for the structures.

With `CCC/C(=C\C(N)C(=O)O)CP(=O)(O)O` (racemic) [[^3 H]CGP-39653, D,L-(E)-2-amino-4-propyl-5-phosphono-3-pentenoate], the Bmax spinal cord is recorded as 224.9 +/-18.8 fmol/mg protein.

The values above are taken from patent US5935606A, “Reversing excitotoxic CNS damage by cellular implantation” (priority 1995, dated 1999).
